Reference: paper PMC3807668, “Structure of the CRISPR Interference Complex CSM Reveals Key Similarities with Cascade” (Molecular Cell, 2013)
These are yes or no findings as the source states them, for the method shown. Binding seen in cells or lysates may run through a third protein. Here binding means that the protein was enriched with, or labelled near, the bait; the list need not be complete. Tags and fused reporters may be left off the sequences shown. Values belong to the binder of their own block, whether it stands above or below them.

Biological target: T1, Sso1431 with C-terminal tandem tag (Strep and 10x His) (S. solfataricus) (UniProt Q97YA1)
T1 sequence (chain, methylation; phosphorylation (residues not printed)): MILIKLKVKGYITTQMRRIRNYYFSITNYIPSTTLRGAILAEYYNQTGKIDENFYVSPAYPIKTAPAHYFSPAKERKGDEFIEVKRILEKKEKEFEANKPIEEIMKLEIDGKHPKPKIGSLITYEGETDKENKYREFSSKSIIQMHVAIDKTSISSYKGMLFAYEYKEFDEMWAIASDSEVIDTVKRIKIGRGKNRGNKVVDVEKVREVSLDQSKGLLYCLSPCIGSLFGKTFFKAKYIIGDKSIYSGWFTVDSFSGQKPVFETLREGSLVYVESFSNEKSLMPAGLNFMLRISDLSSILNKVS
Assay: affinity purification with mass spectrometry; C-terminal Strep-10x His tag on Sso1428 or Sso1431 expressed in S. solfataricus; HisTrap, monoQ and S500 gel filtration; single peak in the last step; subunits seen by SDS-PAGE and MS

binding: binds
B1: Sso1424 (natural protein, UniProt Q97YA8 16-139, looked up)
chain: SSQDLLDIATRIAISAIKPKPKSNKPEPYVDSSTINSLLSFLQSRRNVNELLLYIMRQAGRDEIDEETGKLLLASLKDRELKDAVNLLGYVKWVYDTLTGLKVNYNNVKGVKTFKELVNILSKV
modifications: acetylated N-terminal Ser-16; seven methylated lysines (positions not given)
notes: Sso1424, small subunit (probably Csm2) of the CSM complex of S. solfataricus; three copies in the CSM complex; also called small subunit; Csm2; source: endogenous, S. solfataricus PH1-16; co-purified with the tagged subunit (HisTrap, monoQ, gel filtration)

binding: binds
B2: Sso1426 (natural protein, UniProt Q97YA6 1-281, looked up)
chain: MVLMVNYTFIDKRVIKRTTMIEGDVETVSPLKIGGGKDNFDPSSLAKDSILKDVEGRPIIPGSSWKGIFRSTGERILRLRNIEVCSGIGKDYCLNNNRKERDFNSALKENVDQALEIFWDYTCLNCKVFGTMSVIGAVRFLDSLPISYSLNTRSMIAISRTEGAVARRALVTVEYVDVGSKFSFKMMGYNLPNYAIGYLITIMKNIHDGFTQVGGHKSRGFGFVKFGKVKFTDLGEKRIGDEDIQVKDVGDLVEGNGDEFFGRMKPFMEAFNNAKIPYPKK
modifications: methylation (residues not given)
notes: Sso1426, RAMP subunit assigned to the Csm3 (Cas7-like) family, CSM complex of S. solfataricus; four copies in the CSM complex; its mass lies within 70 Da of that of Sso1427; also called Csm3; Cas7 family RAMP subunit; source: endogenous, S. solfataricus PH1-16; co-purified with the tagged subunit (HisTrap, monoQ, gel filtration)

binding: binds
B3: Sso1427 (natural protein, UniProt Q97YA5 1-275, looked up)
chain: MQRSPIRRSNYTPRNEKGLEGVIELQLNVVSDYLHVGSGKYDVEVMRSVSDVKRLVEDYLSGGNKRIPNNVDQYFSMVAFLMVRNKDNVVIPGSTIKGMVRSRLELSVPGSCYIVTGHSTSSSAVYKRIFNPDPNRGSDRFDVNKFPQVCPVCDLLGNMGLASRVSLSDFVMTSGKVDYVNVKGRDYEVVTKGSIFAGKVLYKSLKPVEIGMLLYGFGFVKDCNGSKVMLLGRFKFSDKRFGRVKFSLKTPIADCNKLVSDFVKQFNPRYINEEW
modifications: methylation (residues not given)
notes: Sso1427, RAMP subunit of the CSM complex of S. solfataricus; its mass lies within 70 Da of that of Sso1426; also called RAMP subunit; Csm3 paralog; source: endogenous, S. solfataricus PH1-16; co-purified with the tagged subunit (HisTrap, monoQ, gel filtration)

binding: binds
B4: Sso1430 (natural protein, UniProt Q97YA2 1-206, looked up)
chain: MIPIKVSMRNLSSLTIAGGSTISSIDIPLNPLGVPPSTIKGTMRTAVHNLLPNGYTSCGEVEPESIREAHKNGVCDVCKLFGYPDSLTGCFTIDVSKTDYRTSYITRVSIDDKTQRAKEGSLFTQQIILPNSDISFTVYYNCNDERLFKLLLYSILDLRYWRLGRNTMIDVKVNNVEEICKSVKCDEEINGILNQLSRYLWEAENK
modifications: methylation (residues not given)
notes: Sso1430, subunit of the CSM complex of S. solfataricus; also called RAMP subunit; Csm3 paralog; source: endogenous, S. solfataricus PH1-16; co-purified with the tagged subunit (HisTrap, monoQ, gel filtration)

binding: binds
B5: Sso1425 (natural protein, UniProt Q97YA7 1-250, looked up)
chain: MKMSCMDLDVITTVVKIEGKLRNETLLRVGKGKTQDFAEATDNPIIKYRDRPLIPGSSLKGAFRSLVESYTKSLNDSKYYVCDLDDNSCVSCEEKKKDNGIVEGRYCIPCILFGFKDLASRVYILDAIAEKYSISQRTMVAINRVFGGQMPGHLYTLDYVDPGSEFSFMMMIYNLNLIEGEKDWKAKSVEALKFLLATLVREGIFVGARKSVGYGLIKLVDAKVSLYKAPDHLVSPVIVKKLEEVIGTNG
modifications: methylation; phosphorylation (residues not given)
notes: Sso1425, RAMP subunit of the CSM complex of S. solfataricus; also called RAMP subunit; Csm3 paralog; source: endogenous, S. solfataricus PH1-16; co-purified with the tagged subunit (HisTrap, monoQ, gel filtration)

binding: binds
B6: Sso1432 (natural protein, UniProt Q97YA0 1-252, looked up)
chain: MVIQVFRLNFRLRTGFRVGGGQEVGDNVIRQLRIGVEGVMIPASSWKGMFRRVSEIVLNSEDHFEEHSKKEVDTRTINALLKSDEKFRRIAISKVGKEVITQNGINVDKLDSESLSDLRRIYNEYNCPIERLYGSNYFAGGITISDSVIPNASIMERTHVTIERKSKKASEKHLFSEEIIDAEKIEVKVIVRNEFELWKNSLKLLREIGYFIGGSKSRGIGYIVLDEKESEYAVINNFSETPKFSELKRYLS
modifications: methylation (residues not given)
notes: Sso1432, RAMP subunit of the CSM complex of S. solfataricus; also called RAMP subunit; Csm3 paralog; source: endogenous, S. solfataricus PH1-16; co-purified with the tagged subunit (HisTrap, monoQ, gel filtration)
